Laboratory results as given in PubChem BioAssay AID1508600 (Functional Genomics Laboratory (NCATS/FGL), 2020).
Hit rate of the full screen: of about 53,000 sequences, about 3,700 (7%) were called active.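 Rule for the calls: active = gene knockdowns whose robust z-score for IL-1 alpha signal is at least 2 or at most -2, so actives lie on both sides; inactive = the rest.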 Some of the results follow.

experiment: Components of the Cytosolic LPS Sensing Pathway: Gene Identification via Genome-wide siRNA Screen; conditions: RAW264.7 macrophages, IL-1a HTRF, actives lie on both sides, screened at 100 nM (by protocol), cells primed 5 h with Pam3CSK4 first;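 note: robust z of the log signal after scaling to non-targeting control siRNA wells of the plate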
Summary of the method: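 Knockdown: 100 nM siRNA, 48h, RAW264.7. Stimulation: Pam3CSK4 5 h, then LipidA via TransIT-TKO 24 h. Output: supernatant IL-1a HTRF, negative-control-normalized, log robust z-score; viability by CellTiter-Glo.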

z-score, active:
CCAUGGGAUAUGAUUUACATT against Phf11a 3.49
GGAGAGUGUGUUUUCAGGCTT against Bop1 3.08
GGAUUAUGUAGAGGCCCAATT against Gngt2 -2.63
CCUUUCCUACUCUGUACCCTT against Abcg1 2.22

z-score, inactive:
GGAUUUUGCUGUUUUGGAATT against Dsc1 0.41
GCCGCUUCCAUUUUCUAUATT against Hic1 0.844
GGAAGAACCCAGCAAUGUCTT against Lzts2 0.0445
GCCAUCUACGUGUCAUAGCTT against Siah1b 0.345
GCUAUAAAAAGAGCUCCGCTT against Cox8b 0.554
GGCCGCUUUUAUUUAUAAUTT against Taf2 -0.637
CCCAAUAGUUUCUACUACUTT against Mkks -0.756
GCAUCGGCUAGUUCAGCCATT against Trim67 0.498
GGAGCACAGUCUCAUGAAUTT against A130014H13Rik -1.44
GGUGACGAUACAGAAAGAGTT against Zfp523 -1.47
GGUUGACGCGCAACAAAAUTT against Gp5 -1.41
GGCAAUCCAGUUAUCCCAGTT against Prl4a1 -1.08
GGAGCUAGCUGAGAUUUUCTT against Tnnc2 0.68
GGAUACCUCAGUGACUACGTT against Scrt1 0.418
GGACAAUGGGAACAUGUAATT against Rnf185 0.858
GCUGCCAAUGAACAAACCATT against Prr27 -0.757
GGGCUUAAGGAAUAAACCATT against Phtf2 -0.317
GGAAUGCUGAAGAAUUUUGTT against Ssu2 0.439
GCAACAGGUUCGUGUAACCTT against Cavin4 0.079
GCUAUAAAGGUGGUAACACTT against Col7a1 0.078
GCUAGAAGACAAUUACCUGTT against Fam160a2 0.688
GGAUUGUCAAUUCUUCCCUTT against Clca4a -1.15
CUUACAGCCCUUAUUGGAGTT against Olfr1205 0.31
GGCUAUAGUAGGUCUUUCATT against Arhgap1 0.214
CCAUUCCUUAAAAGAGCAUTT against Lce1g 1.07
GGAAGUGUAUGAUCUCAUGTT against Tyro3 0.495
CGUACAUCAGAAUGUUAAUTT against Fkbp4 1.46
GGGACAUGAGUUUUAAAAUTT against Dazl -0.736
GGUACAUUAACUGACUUGGTT against Sspo -0.00729
GGACUAUCCAACCUCCUAGTT against Cd47 -1.33
GCAAUAUGCGGAUUUUACCTT against Mtbp -0.162
GGGACCUAAUCAAUUGUUGTT against Fbxo3 0.441
GGAGUGUUCUAGGACUAAGTT against D630003M21Rik 1.27
GGAGAUAACACCGUUACUUTT against Olfr769 0.766
GGUUCAAGAACUUAAGACATT against Cenpe 0.589
GGCAUGGAAGGCUAAACAGTT against Slc25a17 -1.98
GGUGUCCACUUAAUUCUGATT against Mmp19 0.993
GGGUUGCUACAAUCAUUGUTT against Scara3 0.387
CCCAUCUCACUAUUUAAUATT against Lrrc3b -1.23
GCUACAAAGAGUAAAACUGTT against Zfp251 1.01
GGAACUCAUUAUGAUCUCCTT against Sac3d1 0.785
GGCAAUGACGAAAUAACCCTT against Il10rb -0.292
GGUAGCAGUGAUAGACACATT against Zfyve1 -0.187
CCGCUUACAUCGACUUUGCTT against Tpi1 -0.351
GCUACCAAAUUCUUUCAGUTT against Prpf8 0.518
GUUCUUUUUCUUCGGUUCCTT against Olfr1020 0.769
GGCAAAGUUUAUGAAAUCCTT against Lipg -0.517
GGGUUAAGGAACUUUAUGUTT against Cnnm4 -1.05
GCCUGAAUCACAUGACUUCTT against Irgm2 -1.14
GGAGAUUGUGACUGCUUUATT against Sarm1 1.54
GGAGGAGCUGAAUGAAAACTT against Taok1 0.359
CCUUAUCCAGUCACUUUGGTT against Gabra5 -0.47
GGUACAGGUUCCUGUGAAUTT against H2ap 1.34
GCAAUAGUAUGGUAAGUUATT against Dennd4a -0.288
GGGCAAACCCAAGACCUUATT against Sgms2 -0.0749
GGAAAAUGGAGCUGUGCUCTT against Prelid3a 0.298
GCCACUUCCGGUCAACUAUTT against Cog1 0.801
GCGGUAUGGCAUGGUACAUTT against LTO1 -0.855
CGAUUUGAACACUGAUCAATT against Bub3 -0.787
CCUUUGCCUAUGUUUACCATT against Ropn1l 0.851
GGGAUAUGGAAAACUAUGATT against Ssmem1 -1.43
GGCAGCAUUUGUUCUUUUATT against Ikzf1 -1
GGGAACACCUACCCUGUGUTT against Prl8a1 -0.0181
GCGAUAUGACAGACUCUUCTT against Csrnp1 1.79
GGCCUAGACUGGUGCAAUGTT against Hapln3 -0.0286
GGUGGUCCAGGGAAGUAGATT against Gucy2e -0.834
CCUCUAUGUGAGAUUUGAGTT against Mamdc2 -0.917
GCCAAAAGUCGAGCACCUCTT against Lrrc8d 0.43
GCACGGUGAGAUCAUCAAATT against Ap3b2 1.4
GGCUGAAUCGAAGAGACGGTT against Cntnap4 -1.21
GGGUGUCAAUUUACUUUUUTT against Slc16a2 0.658
GGCCUGCGUCAACUUUCUGTT against Btbd6 -0.563
GGACAAUGGUUCACUUUUATT against Gmpr -0.823
GGAUGUCAUCAAUGCUAUGTT against Olfr1022 -0.643
GGAUGCUUUCAAACAUAUGTT against Olfr812 0.535
GGACCAGUUACUUUAACAUTT against Pkdrej 0.555
GGAGUUUCAGAUGUUGAAATT against Cpne2 -0.209
GCUAUACGCGAAAUUUGGCTT against Pfdn4 -0.366
CCAUUUCAGGUUCAAUCGGTT against B4galt7 0.639
GCCUAUGAGUAUCGAAUGUTT against Trim21 0.659
CCAAGUAUUUCACAAACCGTT against Slc29a1 1.49
GCUUAUGACCCUAAGCACUTT against Tpte 0.236
GCCGGAUGACCUACCAUUUTT against Apoh -0.602
CCCAGUUCACAUUAAAACATT against Sec62 -0.355
GGGAGCUCUCUACGAGAUUTT against Tmc8 1.1
GCUACUCCUUAAUUGGCAATT against Wscd2 -0.813
GGCACUUUGUGGCAAAUCUTT against Pcdhb1 0.742
GGGAUGCUAACAGGUGUCATT against Tkfc -0.12
GGCGAGUGCUGAAUCUUUGTT against Pcdhb20 -0.71
GGAAGAGAAGUUGUCCAAATT against Creld1 0.477
GGUUACCAGAAAAUAACUATT against E130114P18Rik 0.852
GCAAAUGUGGGACAGUAAGTT against Wdfy2 0.218
GGAGAAACAACAGUUUCAGTT against Maml1 0.177
CCAGCCCAUACCCAUUACCTT against Olfr3 1.05
GCUAUAAAUUCAGCAUUGGTT against Gtf2a2 -0.388
GGCCACUUGCCUAUUGUGATT against Anxa6 -0.343
CCUAAUUGUAGUAGUACUATT against Olfr117 -0.955
GACACUCAGACGGAAUGUUTT against Sct -0.521
CCCGCCAGAUGAUGCAUAATT against Unc5cl -0.254
GAUGUUCUGCAUCUACUUUTT against Olfr545 1.46
GCCUCAUACCUUGUUACUATT against Ap5b1 -1.2
GCCACUAUUACUCUGAUACTT against Naip3 -0.028
CCCUAAUUCAUGGACCUUGTT against Kremen2 -0.534
